{"sequences": {"note": "By UniProt entry, the sequences of proteins in these tests, tags left out.", "UniProt P9WN83": "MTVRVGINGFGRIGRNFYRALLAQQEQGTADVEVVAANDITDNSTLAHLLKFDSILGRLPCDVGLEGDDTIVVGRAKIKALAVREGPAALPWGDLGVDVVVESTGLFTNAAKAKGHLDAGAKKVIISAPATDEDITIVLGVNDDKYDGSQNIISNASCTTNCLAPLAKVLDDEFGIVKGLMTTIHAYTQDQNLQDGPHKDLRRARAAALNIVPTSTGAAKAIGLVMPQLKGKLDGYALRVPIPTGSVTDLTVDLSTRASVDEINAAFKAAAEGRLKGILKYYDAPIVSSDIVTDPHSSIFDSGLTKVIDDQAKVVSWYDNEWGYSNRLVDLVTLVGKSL", "UniProt A0QWW2": "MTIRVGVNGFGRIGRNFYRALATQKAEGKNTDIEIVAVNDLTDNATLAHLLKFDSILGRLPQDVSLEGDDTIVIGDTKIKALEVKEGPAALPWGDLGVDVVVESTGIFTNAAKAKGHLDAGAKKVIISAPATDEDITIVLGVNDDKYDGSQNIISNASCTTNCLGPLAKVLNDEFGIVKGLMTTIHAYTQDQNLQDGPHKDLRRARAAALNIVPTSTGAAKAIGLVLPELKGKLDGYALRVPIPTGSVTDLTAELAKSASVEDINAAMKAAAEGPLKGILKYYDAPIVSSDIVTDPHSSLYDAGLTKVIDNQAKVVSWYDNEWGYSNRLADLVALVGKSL"}, "source": "paper PMC4982137", "about": "“Mycobacterium tuberculosis H37Ra: a surrogate for the expression of conserved, multimeric proteins of M.tb H37Rv” (Microbial Cell Factories, 2016)", "target": "MS-GAPDH-H: recombinant M.tb H37Rv GAPDH with a C-terminal 8XHis tag, expressed in M. smegmatis (the (Mycobacterium tuberculosis H37Rv) (UniProt P9WN83))", "test": "Ni-NTA co-purification analysed by 2D gel electrophoresis", "note": "Results are given in words; binding and its absence hold for the method and conditions named. Some binding calls cover weakened binding; strength is not graded here."}
{"substance": "native M. smegmatis GAPDH (from UniProt A0QWW2 1-340) (enzyme)", "values": [{"measurement": "binding", "value": "binds"}]}
